Our source for the binding values is publication PMC7733952.

Amino acid sequences for entries named in this document (tags omitted).
UniProt P35710: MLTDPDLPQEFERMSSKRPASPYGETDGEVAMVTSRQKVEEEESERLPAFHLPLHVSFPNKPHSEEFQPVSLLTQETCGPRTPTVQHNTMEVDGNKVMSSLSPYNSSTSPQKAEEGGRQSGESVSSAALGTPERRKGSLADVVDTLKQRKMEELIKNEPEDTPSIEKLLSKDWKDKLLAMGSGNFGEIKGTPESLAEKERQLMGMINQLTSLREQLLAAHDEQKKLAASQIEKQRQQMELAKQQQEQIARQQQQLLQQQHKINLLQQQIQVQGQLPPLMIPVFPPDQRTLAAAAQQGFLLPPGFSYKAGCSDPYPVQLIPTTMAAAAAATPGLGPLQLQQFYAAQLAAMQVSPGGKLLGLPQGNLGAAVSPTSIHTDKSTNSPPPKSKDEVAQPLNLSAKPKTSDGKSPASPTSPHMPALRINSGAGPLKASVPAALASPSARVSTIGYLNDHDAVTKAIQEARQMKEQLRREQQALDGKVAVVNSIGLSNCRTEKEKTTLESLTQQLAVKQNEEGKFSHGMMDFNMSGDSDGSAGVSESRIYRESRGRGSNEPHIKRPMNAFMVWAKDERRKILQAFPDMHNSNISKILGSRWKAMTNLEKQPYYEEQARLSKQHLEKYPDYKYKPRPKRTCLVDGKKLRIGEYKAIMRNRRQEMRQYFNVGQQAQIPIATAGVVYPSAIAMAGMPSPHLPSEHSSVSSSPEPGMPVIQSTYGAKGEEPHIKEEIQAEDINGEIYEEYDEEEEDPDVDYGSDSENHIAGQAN

The target in this assay is T1, endogenous STING of RAW264.7 cells (mouse (endogenous in RAW264.7)) (UniProt Q3TBT3).
T1 sequence: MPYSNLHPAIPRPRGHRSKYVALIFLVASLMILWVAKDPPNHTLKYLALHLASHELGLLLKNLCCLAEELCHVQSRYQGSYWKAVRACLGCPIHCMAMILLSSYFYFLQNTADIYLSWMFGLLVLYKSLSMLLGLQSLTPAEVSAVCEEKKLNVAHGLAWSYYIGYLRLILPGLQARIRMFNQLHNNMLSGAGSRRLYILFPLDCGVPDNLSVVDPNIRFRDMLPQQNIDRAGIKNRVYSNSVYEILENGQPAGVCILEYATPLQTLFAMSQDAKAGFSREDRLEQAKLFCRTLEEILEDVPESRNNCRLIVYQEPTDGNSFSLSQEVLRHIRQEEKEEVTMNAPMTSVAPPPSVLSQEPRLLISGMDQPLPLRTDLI
Briefly: affinity purification with mass spectrometry.

Results are given in words; binding and its absence hold for the method and conditions named. Binding seen in cells or lysates may run through a third protein. These calls come from enrichment with a bait or labelling near it, and not all partners need be listed.

Turning to SOX5 (from UniProt P35710 1-763), the binding entry is given as “binds”.
